Results reported in article PMC3369926.
These are yes or no findings as the source states them, for the method shown.

Sequences of proteins named here, by UniProt entry; tags and fusion partners are left off. Residues count along the entry.
UniProt Q99836, residues 148-296: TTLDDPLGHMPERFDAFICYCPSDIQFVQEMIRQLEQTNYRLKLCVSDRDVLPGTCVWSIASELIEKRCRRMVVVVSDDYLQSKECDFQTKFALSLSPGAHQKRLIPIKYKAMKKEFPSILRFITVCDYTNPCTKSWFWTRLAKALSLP

Biological target: GST-MyD88-TIR (wild type, amino acid residues 148-296) (UniProt Q99836)
Assay: pull-down; GST fusion proteins held on Glutathione Sepharose 4B, three hours at 4°C; four washes with 20 mM potassium phosphate (pH 6.0), 100 mM KCl, 0.1 mM EDTA, 10 mM DTT, 0.5% Triton X100; SDS-PAGE with Coomassie staining; in triplicate; both purified

binding: no binding
B1: TLR1-TIR (amino acid residues 625-786) (domain or fragment, UniProt Q15399 625-786)
chain: NIPLEELQRNLQFHAFISYSGHDSFWVKNELLPNLEKEGMQICLHERNFVPGKSIVENIITCIEKSYKSIFVLSPNFVQSEWCHYELYFAHHNLFHEGSNSLILILLEPIPQYSIPSSYHKLKSLMARRTYLEWPKEKSKRGLFWANLRAAINIKLTEQAKK
